Results are given in words; binding and its absence hold for the method and conditions named. In cells and extracts the contact can be indirect. Some results given as binding are weak or reduced against the parent protein; the word gives no strength.
Target: hnRNPC (mouse (endogenous in P8 testes)) (UniProt Q9Z204)
Assay: co-IP; P8 WT mouse testis lysate, treated with or without RNase A (1 ug/mL, 30 min); Protein G magnetic beads with anti-hnRNPC antibody or rabbit IgG, overnight at 4 °C; Western blot of the immunoprecipitates

By UniProt entry, the sequences of proteins in these tests, tags left out.
UniProt Q9Z204: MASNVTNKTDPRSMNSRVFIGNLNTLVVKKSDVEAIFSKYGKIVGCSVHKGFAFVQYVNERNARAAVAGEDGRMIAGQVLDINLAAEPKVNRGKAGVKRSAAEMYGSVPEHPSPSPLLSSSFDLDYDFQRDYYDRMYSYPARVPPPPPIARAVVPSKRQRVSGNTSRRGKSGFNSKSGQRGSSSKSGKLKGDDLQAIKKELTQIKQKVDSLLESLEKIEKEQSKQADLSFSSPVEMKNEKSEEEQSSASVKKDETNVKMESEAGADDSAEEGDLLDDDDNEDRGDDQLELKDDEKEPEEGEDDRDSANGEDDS
UniProt P70372: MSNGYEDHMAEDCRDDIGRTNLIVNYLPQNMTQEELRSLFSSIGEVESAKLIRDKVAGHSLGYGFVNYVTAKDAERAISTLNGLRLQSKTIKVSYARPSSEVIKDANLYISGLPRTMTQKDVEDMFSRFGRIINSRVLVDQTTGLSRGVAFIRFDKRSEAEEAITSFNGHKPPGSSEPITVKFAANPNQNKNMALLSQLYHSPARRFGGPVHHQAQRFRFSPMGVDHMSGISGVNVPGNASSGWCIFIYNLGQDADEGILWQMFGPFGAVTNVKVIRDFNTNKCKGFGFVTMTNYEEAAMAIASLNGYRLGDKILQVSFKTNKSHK
UniProt Q6P4T2: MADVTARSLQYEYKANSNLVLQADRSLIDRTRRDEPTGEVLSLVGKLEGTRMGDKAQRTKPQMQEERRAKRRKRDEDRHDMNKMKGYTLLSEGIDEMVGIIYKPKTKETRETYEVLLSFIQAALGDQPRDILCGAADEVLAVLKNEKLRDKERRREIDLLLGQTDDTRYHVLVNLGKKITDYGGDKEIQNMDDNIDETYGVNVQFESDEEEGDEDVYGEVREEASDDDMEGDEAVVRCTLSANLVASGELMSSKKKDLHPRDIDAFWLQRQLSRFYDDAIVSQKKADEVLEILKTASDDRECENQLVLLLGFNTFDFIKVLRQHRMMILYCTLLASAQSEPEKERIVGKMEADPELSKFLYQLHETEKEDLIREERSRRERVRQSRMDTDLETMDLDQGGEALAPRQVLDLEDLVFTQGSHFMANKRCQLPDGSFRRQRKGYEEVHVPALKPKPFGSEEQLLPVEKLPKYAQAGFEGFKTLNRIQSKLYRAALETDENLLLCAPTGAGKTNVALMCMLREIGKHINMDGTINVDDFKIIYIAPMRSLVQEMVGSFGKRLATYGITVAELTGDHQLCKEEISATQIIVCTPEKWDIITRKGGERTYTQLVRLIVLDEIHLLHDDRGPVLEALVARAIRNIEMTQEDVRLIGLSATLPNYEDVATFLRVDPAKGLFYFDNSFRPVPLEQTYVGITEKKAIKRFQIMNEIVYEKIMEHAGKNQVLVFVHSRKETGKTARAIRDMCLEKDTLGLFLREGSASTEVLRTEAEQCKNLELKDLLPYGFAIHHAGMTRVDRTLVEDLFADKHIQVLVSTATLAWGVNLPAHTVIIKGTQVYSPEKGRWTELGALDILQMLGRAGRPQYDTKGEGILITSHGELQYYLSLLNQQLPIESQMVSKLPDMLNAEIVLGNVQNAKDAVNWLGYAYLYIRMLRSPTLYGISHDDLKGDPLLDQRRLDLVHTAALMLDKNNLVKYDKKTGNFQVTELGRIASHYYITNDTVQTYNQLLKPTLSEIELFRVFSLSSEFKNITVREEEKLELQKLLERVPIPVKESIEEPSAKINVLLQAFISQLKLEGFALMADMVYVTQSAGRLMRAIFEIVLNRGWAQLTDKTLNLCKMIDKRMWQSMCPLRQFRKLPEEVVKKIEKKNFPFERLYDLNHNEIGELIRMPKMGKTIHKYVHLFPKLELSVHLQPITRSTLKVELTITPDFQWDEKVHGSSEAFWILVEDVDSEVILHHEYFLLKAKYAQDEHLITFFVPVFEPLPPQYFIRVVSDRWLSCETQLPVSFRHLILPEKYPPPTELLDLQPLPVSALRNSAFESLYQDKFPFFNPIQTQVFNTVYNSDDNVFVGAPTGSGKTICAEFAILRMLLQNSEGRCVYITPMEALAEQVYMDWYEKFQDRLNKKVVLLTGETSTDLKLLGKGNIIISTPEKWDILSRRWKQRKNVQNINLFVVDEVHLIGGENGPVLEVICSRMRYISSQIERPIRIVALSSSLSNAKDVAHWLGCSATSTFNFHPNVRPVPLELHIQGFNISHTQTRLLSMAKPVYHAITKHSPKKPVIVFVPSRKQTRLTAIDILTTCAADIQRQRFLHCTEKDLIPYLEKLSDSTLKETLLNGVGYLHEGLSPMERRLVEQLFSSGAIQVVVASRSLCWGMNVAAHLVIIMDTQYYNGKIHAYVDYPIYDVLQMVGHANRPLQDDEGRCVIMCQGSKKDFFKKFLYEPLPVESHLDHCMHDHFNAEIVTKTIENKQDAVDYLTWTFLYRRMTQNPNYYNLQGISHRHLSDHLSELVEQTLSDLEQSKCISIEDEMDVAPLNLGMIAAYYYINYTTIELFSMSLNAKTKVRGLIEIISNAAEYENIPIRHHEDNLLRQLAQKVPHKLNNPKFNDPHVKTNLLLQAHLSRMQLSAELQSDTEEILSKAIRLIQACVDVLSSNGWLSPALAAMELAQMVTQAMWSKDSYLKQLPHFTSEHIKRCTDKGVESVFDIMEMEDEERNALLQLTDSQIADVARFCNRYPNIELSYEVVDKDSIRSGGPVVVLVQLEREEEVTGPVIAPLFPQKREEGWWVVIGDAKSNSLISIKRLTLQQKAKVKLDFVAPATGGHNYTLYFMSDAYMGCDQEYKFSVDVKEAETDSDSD

HuR (from UniProt P70372 1-326)
binding: binds

SNRNP200 (from UniProt Q6P4T2 1-2136)
binding: binds
